Assay [1] deals with Toll-like receptor 4 (human (endogenous in SH-SY5Y)) (UniProt O00206). As to the kind of experiment: co-IP; SH-SY5Y lysates incubated with anti-TLR4 overnight at 4 °C, protein A-agarose 2 h at 4 °C; blotted for TLR4, MyD88 or TIRAP; cells pre-treated with palmitic acid, DHA or placebo and challenged with resistin.
Assay [2] has the same target. As to the kind of experiment: cross-linking + co-IP; serum starved SH-SY5Y cells treated with resistin (200 ng/mL) for 1 h at 4 °C, BS3 2.5 mM for 1 h at 4 °C, quenched with 20 mM Tris-HCl pH 7.5; lysates immunoprecipitated with anti-TLR4, blotted for TLR4 or resistin (legend: resistin 100 ng/ml for 16 h, with or without BS3); only the binder ….

By UniProt entry, the sequences of proteins in these tests, tags left out. Residues count along the entry.
UniProt O00206, residues 24-839: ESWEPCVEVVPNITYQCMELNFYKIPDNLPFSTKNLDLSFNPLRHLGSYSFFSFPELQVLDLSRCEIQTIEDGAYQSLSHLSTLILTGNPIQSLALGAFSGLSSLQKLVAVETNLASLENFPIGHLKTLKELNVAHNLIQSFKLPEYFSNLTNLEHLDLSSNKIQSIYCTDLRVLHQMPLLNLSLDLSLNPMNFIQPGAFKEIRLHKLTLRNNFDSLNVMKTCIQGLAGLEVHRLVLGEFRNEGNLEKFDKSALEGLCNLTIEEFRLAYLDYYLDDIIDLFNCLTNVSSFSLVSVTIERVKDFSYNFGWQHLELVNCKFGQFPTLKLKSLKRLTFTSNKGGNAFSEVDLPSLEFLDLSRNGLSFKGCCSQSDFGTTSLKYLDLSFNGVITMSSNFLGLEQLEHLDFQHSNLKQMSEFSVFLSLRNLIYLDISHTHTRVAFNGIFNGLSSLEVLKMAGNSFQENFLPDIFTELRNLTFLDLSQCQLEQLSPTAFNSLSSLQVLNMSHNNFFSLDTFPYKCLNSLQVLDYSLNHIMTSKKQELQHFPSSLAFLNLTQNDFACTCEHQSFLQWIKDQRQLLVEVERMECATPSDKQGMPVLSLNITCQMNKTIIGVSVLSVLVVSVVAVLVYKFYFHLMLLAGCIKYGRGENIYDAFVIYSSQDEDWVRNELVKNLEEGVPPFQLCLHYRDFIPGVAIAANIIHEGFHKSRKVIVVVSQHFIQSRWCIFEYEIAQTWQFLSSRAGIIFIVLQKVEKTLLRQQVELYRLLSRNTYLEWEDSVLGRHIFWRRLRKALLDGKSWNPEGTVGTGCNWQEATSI
UniProt Q99836: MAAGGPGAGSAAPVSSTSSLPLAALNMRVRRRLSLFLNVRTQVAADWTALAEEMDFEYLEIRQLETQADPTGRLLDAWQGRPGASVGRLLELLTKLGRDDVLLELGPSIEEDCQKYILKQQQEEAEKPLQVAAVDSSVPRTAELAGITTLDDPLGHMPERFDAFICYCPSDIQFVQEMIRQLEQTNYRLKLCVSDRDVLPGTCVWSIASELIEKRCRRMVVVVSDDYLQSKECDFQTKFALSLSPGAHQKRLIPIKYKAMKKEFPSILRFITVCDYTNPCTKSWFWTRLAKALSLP
UniProt Q9HD89, residues 19-108: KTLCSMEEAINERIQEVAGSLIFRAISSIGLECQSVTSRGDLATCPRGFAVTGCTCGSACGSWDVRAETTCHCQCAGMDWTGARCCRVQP
UniProt P58753: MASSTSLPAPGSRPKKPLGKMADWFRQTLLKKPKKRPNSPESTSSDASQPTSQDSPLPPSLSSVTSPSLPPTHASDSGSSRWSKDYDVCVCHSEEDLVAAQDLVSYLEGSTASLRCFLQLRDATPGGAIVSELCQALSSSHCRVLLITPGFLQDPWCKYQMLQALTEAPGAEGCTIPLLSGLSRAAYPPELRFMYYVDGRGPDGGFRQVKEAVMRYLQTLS

These are yes or no findings as the source states them, for the method shown. Binding seen in cells or lysates may run through a third protein. Some binding calls cover weakened binding; strength is not graded here.

Regarding MyD88 (from UniProt Q99836 1-296), in assay [1], the binding result was “binds”.
Turning to “Human resistin (from UniProt Q9HD89 19-108) (ligand)”, in assay [2], the binding result is given as “binds”.
Consider TIRAP (from UniProt P58753 1-221), for which the binding result in assay [1] is on record as “binds”.

The values above are taken from PMC7940652.
